From PMC6201368
No constants are given. Whether binding was seen depends on the method and setting. Binding seen in cells or lysates may run through a third protein. Some results given as binding are weak or reduced against the parent protein; the word gives no strength.

The chains behind the UniProt entries cited, without tags or fusion partners. Where a name states a change or a piece, a line headed by the entry shows the natural chain unless it says otherwise. A line that says so, or that is headed by a name, gives the form on record, which may keep a tag or linker.
SCN1Bβ/WT (Navβ1b, sodium channel beta1b subunit) (Q07699-2, form named): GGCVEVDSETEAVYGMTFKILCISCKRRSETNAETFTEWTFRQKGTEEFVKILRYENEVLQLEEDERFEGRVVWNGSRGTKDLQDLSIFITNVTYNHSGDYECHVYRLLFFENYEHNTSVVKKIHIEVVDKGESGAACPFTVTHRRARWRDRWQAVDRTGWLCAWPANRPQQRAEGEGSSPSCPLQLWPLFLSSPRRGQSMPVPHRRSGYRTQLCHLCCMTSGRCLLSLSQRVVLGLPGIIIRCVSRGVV
SCN1Bβ/S248R (Q07699-2, form named): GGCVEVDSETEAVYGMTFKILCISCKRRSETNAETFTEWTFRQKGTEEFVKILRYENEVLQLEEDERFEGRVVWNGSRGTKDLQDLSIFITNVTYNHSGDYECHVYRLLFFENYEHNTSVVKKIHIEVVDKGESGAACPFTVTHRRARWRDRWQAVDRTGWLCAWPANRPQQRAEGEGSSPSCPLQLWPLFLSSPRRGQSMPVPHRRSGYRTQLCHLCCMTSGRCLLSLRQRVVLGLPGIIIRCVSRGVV
SCN1Bβ/R250T (Q07699-2, form named): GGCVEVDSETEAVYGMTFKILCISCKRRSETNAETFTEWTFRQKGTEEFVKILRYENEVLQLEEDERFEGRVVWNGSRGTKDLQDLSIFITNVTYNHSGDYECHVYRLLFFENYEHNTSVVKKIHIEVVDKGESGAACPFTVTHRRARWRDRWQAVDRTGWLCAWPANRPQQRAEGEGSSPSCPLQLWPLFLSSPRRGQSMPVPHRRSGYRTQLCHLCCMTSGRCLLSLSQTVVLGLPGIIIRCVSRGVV

Molecular target: T1, Kv4.3 (KCND3/WT) (human) (UniProt Q9UK17)
T1 sequence: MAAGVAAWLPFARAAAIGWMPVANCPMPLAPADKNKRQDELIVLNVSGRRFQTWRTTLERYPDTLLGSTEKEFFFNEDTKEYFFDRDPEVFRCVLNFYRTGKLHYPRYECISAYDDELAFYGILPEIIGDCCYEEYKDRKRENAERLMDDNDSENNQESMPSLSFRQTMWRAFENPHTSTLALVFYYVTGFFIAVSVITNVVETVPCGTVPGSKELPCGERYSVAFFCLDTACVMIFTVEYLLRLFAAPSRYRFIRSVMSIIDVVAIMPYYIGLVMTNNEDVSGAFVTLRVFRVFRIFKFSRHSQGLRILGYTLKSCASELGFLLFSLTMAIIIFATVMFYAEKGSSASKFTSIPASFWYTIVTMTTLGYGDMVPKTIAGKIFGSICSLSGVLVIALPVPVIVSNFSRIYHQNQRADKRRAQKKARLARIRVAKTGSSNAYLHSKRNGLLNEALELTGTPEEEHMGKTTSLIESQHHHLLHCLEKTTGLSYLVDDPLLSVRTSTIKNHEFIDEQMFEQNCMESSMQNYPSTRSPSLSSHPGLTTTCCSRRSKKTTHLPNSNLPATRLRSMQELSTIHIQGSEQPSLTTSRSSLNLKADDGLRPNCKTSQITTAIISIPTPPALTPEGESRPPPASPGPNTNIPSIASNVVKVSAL
Assay: co-IP; HEK293 co-transfected with KCND3/WT and SCN1Bβ (WT, S248R or R250T), 48 h; membrane protein lysates incubated with anti-Kv4.3 antibody overnight at 4°C, Protein G Dynabeads 1 h at room temperature, washed three times with PBS with 0.02% Tween-20; blotted with anti-Kv4.3 and anti-SCN1Bβ

binding	Substance
binds	SCN1Bβ/WT (Navβ1b, sodium channel beta1b subunit) (from UniProt Q07699-2 19-268)
binds	SCN1Bβ/S248R (from UniProt Q07699-2 19-268)
binds	SCN1Bβ/R250T (from UniProt Q07699-2 19-268)
